Publication PMC4589357, “The Role of Electrostatic Interactions in Binding of Histone H3K4me2/3 to the Sgf29 Tandem Tudor Domain” (PLoS ONE, 2015)
Changes are numbered by the printed parent chain. In names and notes the source's numbering stands. Some compounds share one wording; it may come from a single statement.

B1: D266E: Sgf29 variant, substitution of D266 by glutamic acid (protein)
chain: RRGVLMTLLQQSAMTLPLWIGKPGDKPPPLCGAIPASGDYVARPGDKVAARVKAVDGDEQWILAEVVSYSHATNKYEVDDIDEEGKERHTLSRRRVIPLPQWKANPETDPEALFQKEQLVLALYPQTTCFYRALIHAPPQRPQDDYSVLFEETSYADGYSPPLNVAQRYVVACKEPKKK
modifications: left off: 6xHis, end not stated, cleaved
notes: Sgf29 variant, substitution of D266 by glutamic acid
B2: Y238F: Sgf29 variant, Y238 substituted by phenylalanine (protein)
chain: B1 chain with Y124F, E152D
modifications: left off: 6xHis, end not stated, cleaved
notes: Sgf29 variant, Y238 substituted by phenylalanine
B3: D266Y: Sgf29 variant, D266 substituted by tyrosine (protein)
chain: B1 chain with E152Y
modifications: left off: 6xHis, end not stated, cleaved
notes: Sgf29 variant, D266 substituted by tyrosine
B4: D266N: Sgf29 variant, D266 substituted by asparagine (protein)
chain: B1 chain with E152N
modifications: left off: 6xHis, end not stated, cleaved
notes: Sgf29 variant, D266 substituted by asparagine
B5: D266F: Sgf29 variant, D266 substituted by phenylalanine (protein)
chain: B1 chain with E152F
modifications: left off: 6xHis, end not stated, cleaved
notes: Sgf29 variant, D266 substituted by phenylalanine
B6: D266A: Sgf29 variant, D266 substituted by alanine (protein)
chain: B1 chain with E152A
modifications: left off: 6xHis, end not stated, cleaved
notes: Sgf29 variant, D266 substituted by alanine
B7: D266W: Sgf29 variant, D266 substituted by tryptophan (protein)
chain: B1 chain with E152W
modifications: left off: 6xHis, end not stated, cleaved
notes: Sgf29 variant, D266 substituted by tryptophan

assay: CD spectroscopy of Sgf29 and variants; type: physicochemical, Homo sapiens; conditions: 0.1 mg ml^-1 protein, 10 mM NaH2PO4 pH 7.5, 180–260 nm, average of 10 measurements; multiple batches

Molecule | CD spectrum compared to WT Sgf29
B1 | very similar CD spectra
B2 | ranging from wild-type like to a distinctly altered spectrum
B3 | significantly different spectra
B4 | slightly altered spectrum
B5 | significantly different spectra
B6 | significantly different spectra
B7 | significantly different spectra
